Assay results reported in article PMC7040187.
These are yes or no findings as the source states them, for the method shown. In cells and extracts the contact can be indirect.

Amino acid sequences for entries named in this document (tags omitted).
UniProt Q9UPS6: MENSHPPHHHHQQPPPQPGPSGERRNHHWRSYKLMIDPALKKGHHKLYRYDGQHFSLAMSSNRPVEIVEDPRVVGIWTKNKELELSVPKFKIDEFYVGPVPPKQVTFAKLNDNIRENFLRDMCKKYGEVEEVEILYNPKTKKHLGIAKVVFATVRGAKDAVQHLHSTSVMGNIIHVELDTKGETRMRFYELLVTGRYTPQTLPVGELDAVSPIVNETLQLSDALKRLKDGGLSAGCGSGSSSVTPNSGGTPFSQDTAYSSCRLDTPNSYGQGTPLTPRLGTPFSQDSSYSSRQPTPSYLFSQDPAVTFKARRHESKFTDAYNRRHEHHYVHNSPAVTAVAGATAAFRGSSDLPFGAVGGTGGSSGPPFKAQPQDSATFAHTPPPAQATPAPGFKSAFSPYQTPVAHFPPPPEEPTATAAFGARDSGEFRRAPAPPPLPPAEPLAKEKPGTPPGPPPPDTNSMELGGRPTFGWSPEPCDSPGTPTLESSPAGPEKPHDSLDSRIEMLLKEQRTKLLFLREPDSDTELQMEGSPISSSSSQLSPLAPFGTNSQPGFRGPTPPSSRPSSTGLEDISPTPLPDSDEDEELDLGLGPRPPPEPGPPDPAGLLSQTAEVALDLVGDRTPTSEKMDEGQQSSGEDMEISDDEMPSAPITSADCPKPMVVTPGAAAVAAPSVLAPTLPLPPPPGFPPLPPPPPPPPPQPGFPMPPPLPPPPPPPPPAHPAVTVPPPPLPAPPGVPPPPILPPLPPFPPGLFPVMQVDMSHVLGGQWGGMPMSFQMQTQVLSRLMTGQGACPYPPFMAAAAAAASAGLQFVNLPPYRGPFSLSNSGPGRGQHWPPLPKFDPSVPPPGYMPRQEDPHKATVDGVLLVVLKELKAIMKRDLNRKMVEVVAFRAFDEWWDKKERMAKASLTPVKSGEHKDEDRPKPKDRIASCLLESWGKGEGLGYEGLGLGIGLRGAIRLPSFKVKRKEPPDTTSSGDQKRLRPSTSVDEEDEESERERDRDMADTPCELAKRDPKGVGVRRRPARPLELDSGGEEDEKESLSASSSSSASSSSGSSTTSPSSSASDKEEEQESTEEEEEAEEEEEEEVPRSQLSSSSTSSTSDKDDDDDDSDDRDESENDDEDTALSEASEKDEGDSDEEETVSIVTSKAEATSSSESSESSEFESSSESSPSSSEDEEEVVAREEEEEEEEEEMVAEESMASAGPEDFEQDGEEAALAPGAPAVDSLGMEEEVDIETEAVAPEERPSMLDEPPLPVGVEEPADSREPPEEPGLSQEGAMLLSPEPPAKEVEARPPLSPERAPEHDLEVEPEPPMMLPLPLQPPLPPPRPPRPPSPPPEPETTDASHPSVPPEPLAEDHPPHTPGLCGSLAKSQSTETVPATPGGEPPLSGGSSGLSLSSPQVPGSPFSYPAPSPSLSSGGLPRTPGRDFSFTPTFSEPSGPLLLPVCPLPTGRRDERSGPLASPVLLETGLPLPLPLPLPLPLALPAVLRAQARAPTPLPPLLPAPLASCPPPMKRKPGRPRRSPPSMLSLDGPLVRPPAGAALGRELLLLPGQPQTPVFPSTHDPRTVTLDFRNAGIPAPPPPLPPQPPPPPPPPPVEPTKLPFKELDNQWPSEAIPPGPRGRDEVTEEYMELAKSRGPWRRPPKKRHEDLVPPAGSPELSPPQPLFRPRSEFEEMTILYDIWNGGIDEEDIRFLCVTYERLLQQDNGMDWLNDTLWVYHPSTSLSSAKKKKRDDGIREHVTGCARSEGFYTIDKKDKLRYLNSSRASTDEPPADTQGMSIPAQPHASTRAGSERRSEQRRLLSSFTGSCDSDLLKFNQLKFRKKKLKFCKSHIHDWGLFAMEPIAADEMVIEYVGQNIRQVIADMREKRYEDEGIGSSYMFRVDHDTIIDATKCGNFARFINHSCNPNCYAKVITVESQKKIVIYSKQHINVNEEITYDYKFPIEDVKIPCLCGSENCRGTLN

Molecular target: SET domain containing 1B (SETD1B), histone-lysine N-methyltransferase (human (endogenous in HCT116)) (UniProt Q9UPS6)
Assay: proximity ligation; Duolink in situ PLA in HCT WT and HCT p21-/- cells; co-stained overnight at 4 C with SETD1B (rabbit, Abcam ab113984) and ZEB1 (mouse, R&D 639914) antibodies; EpCAM as negative control

B1: EpCAM (protein, UniProt P16422 24-314)
chain: QEECVCENYKLAVNCFVNNNRQCQCTSVGAQNTVICSKLAAKCLVMKAEMNGSKLGRRAKPEGALQNNDGLYDPDCDESGLFKAKQCNGTSMCWCVNTAGVRRTDKDTEITCSERVRTYWIIIELKHKAREKPYDSKSLRTALQKEITTRYQLDPKFITSILYENNVITIDLVQNSSQKTQNDVDIADVAYYFEKDVKGESLFHSKKMDLTVNGEQLDLDPGQTLIYYVDEKAPEFSMQGLKAGVIAVIVVVVIAVVAGIVVLVISRKKRMAKYEKAEIKEMGEMHRELNA
In the case of B1, the binding is reported as “no binding”.
